Experimental data taken from the supplement of paper PMC10849652.
The other results are listed elsewhere or left out.

Amino acid sequences for entries named in this document (tags omitted). A change or cut given only in a name is not applied to a line headed by its entry.
UniProt P02675: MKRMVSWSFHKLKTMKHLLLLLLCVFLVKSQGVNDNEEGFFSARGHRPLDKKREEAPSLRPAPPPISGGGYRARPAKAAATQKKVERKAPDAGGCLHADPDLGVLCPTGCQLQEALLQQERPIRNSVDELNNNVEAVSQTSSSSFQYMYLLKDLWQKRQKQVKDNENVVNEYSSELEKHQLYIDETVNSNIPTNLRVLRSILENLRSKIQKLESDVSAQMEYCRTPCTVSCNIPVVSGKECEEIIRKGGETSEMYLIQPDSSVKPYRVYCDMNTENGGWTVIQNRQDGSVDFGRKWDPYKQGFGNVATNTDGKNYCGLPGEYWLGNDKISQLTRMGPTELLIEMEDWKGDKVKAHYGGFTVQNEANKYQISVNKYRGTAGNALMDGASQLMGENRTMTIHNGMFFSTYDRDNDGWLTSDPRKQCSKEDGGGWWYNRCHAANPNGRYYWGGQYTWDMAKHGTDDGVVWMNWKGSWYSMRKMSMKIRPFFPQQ
UniProt Q02790: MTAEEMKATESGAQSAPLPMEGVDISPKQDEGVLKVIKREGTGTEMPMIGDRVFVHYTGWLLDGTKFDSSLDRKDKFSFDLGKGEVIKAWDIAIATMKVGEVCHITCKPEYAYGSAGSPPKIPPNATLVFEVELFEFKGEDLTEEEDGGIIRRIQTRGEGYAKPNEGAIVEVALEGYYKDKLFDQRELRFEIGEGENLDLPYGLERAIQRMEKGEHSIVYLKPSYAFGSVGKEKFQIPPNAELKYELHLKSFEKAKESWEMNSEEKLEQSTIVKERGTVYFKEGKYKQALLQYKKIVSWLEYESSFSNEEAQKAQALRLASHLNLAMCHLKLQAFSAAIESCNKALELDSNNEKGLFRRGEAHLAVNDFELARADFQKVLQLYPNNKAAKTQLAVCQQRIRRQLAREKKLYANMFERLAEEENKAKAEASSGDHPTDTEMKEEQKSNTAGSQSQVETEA
UniProt Q6P3S6: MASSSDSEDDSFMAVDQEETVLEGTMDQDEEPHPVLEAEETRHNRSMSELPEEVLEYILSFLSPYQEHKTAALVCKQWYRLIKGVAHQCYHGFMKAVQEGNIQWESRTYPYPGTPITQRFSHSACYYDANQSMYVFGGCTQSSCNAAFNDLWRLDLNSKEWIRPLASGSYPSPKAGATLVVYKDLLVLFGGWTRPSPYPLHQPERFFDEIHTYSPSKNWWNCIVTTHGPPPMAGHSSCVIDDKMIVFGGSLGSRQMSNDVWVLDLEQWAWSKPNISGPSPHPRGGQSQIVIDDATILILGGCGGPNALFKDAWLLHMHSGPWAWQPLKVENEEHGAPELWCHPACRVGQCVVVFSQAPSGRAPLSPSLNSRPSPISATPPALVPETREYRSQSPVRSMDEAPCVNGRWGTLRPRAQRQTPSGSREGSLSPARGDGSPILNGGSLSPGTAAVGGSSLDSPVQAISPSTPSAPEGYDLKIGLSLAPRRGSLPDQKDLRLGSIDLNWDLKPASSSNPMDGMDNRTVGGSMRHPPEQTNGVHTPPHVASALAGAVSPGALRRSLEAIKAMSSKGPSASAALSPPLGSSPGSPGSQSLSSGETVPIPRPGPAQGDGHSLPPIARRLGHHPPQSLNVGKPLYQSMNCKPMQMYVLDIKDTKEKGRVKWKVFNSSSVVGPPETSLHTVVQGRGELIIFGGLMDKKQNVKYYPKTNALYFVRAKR
UniProt O14526: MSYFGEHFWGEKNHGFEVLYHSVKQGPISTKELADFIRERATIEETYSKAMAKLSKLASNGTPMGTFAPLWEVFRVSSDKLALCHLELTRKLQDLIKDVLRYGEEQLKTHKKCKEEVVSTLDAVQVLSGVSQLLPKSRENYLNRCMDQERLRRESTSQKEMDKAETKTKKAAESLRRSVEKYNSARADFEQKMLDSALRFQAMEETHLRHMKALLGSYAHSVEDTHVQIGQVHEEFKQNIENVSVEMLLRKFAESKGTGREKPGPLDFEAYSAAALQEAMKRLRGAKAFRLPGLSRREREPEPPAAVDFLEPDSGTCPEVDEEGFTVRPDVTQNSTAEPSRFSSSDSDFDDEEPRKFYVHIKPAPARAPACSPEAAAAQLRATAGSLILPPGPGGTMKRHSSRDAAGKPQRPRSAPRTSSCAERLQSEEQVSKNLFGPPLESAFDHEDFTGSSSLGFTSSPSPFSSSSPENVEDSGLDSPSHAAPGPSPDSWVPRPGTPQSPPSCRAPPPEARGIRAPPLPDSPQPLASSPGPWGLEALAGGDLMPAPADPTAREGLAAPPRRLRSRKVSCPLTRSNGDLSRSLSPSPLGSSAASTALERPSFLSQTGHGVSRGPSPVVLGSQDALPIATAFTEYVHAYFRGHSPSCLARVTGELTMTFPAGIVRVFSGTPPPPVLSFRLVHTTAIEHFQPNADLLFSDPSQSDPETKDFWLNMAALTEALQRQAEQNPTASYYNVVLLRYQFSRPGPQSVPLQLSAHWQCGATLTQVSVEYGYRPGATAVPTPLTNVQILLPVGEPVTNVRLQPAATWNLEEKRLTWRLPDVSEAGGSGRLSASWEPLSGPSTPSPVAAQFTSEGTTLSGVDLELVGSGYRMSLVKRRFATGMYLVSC
UniProt Q9Y3D6: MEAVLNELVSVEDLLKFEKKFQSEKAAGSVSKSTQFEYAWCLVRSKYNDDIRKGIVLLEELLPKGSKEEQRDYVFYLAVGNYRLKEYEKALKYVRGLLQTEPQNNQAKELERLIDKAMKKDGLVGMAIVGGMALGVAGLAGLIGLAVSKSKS
UniProt P22830: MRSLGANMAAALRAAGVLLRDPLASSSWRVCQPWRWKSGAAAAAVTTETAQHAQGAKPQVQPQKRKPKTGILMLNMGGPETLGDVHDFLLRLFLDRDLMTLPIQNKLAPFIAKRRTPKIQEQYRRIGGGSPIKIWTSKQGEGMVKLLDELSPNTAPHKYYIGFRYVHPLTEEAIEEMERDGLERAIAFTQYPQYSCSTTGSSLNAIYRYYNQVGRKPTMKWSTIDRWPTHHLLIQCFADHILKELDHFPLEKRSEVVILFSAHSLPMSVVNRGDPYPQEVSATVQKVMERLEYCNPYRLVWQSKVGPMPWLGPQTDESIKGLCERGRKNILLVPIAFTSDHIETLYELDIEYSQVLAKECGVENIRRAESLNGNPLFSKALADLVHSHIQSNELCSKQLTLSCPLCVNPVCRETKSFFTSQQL
UniProt Q14153: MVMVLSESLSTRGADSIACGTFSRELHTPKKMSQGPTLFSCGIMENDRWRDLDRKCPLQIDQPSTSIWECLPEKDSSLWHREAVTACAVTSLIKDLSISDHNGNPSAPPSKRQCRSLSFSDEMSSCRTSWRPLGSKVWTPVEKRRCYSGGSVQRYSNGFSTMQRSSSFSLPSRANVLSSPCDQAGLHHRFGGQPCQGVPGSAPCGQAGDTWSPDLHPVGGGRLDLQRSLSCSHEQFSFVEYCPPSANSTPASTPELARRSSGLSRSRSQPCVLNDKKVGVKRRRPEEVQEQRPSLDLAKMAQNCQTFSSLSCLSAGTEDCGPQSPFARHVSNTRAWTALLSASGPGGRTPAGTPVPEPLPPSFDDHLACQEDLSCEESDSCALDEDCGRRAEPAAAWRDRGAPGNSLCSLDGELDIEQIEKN
UniProt P98173: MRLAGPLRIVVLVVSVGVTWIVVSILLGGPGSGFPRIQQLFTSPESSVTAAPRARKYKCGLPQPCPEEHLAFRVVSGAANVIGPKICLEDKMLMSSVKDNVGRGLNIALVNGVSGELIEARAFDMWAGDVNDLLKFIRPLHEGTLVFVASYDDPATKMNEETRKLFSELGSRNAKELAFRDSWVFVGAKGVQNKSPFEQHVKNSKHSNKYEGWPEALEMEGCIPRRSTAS
UniProt P16591: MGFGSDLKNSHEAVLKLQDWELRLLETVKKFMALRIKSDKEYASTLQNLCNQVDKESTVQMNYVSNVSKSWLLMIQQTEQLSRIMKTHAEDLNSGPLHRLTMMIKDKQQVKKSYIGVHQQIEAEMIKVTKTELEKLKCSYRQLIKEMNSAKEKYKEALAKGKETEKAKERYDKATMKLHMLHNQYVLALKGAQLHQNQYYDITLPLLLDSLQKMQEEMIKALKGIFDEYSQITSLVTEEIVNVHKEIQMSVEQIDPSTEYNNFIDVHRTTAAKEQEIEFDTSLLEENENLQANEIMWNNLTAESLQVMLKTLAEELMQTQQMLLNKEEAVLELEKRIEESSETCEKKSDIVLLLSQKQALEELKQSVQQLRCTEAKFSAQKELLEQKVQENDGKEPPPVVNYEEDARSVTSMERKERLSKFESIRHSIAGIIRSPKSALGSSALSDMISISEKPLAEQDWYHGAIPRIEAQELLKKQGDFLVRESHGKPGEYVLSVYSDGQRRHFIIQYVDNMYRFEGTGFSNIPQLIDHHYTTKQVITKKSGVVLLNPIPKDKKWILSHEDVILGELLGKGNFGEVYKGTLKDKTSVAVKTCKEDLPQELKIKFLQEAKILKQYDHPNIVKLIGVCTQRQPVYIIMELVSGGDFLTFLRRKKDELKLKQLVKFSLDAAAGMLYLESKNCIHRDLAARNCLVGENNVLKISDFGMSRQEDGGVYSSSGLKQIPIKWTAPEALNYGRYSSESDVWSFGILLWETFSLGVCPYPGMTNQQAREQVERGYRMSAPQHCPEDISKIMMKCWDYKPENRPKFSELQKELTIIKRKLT
UniProt Q96SL8: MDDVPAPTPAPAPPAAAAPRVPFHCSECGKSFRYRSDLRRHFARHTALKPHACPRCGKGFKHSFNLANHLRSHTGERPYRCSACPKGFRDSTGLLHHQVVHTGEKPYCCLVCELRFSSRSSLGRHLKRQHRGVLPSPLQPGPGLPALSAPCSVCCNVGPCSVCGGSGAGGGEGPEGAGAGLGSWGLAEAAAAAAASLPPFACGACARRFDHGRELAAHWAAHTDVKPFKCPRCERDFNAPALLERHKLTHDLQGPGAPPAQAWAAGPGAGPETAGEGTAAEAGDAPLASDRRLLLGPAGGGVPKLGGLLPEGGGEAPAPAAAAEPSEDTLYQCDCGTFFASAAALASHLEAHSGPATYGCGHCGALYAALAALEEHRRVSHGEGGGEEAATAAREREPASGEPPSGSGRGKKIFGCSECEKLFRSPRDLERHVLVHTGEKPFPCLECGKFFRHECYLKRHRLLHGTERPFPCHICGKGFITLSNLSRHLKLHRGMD
UniProt O43427: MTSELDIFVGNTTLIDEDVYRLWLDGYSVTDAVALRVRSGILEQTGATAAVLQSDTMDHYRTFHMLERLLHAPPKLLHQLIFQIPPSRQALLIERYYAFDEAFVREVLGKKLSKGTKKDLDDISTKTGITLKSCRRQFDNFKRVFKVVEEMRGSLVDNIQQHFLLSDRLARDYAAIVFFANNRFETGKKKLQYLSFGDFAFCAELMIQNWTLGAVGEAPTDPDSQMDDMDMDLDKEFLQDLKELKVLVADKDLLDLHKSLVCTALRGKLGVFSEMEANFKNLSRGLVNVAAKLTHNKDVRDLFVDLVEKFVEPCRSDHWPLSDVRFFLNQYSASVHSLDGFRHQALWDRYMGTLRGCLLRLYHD
UniProt Q9Y324: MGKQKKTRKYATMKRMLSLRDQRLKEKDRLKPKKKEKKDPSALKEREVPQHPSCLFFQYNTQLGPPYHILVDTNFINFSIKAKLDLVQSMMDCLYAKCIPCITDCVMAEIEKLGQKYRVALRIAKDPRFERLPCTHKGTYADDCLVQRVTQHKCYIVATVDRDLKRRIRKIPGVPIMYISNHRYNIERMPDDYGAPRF
UniProt Q9UK97: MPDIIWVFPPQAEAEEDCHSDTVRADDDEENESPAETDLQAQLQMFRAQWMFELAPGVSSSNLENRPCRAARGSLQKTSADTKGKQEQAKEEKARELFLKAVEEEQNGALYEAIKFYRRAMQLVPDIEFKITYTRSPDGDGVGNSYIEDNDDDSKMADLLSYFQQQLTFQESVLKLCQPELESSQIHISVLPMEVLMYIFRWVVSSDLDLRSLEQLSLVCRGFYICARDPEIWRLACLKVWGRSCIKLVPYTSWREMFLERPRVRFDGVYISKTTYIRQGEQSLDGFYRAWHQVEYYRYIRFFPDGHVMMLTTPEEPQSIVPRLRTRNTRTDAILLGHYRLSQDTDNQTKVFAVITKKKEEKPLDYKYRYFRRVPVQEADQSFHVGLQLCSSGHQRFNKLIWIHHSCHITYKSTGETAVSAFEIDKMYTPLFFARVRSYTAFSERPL
UniProt P39748, whole entry, looked up: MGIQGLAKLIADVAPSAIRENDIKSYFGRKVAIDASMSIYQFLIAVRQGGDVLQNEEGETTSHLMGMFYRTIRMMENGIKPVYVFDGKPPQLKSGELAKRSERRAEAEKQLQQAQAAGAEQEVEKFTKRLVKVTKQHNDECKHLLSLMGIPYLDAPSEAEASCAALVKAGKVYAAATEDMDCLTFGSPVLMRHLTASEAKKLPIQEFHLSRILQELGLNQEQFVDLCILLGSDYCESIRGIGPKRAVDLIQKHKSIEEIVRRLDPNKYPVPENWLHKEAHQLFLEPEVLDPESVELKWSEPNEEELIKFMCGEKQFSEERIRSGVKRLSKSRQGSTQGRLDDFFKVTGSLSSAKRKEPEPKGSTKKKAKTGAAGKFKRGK

These targets were tested with COC(=O)[C@H](CCSC)NC(=O)C1=C(C=C(C=C1)NC[C@H](CS)N)C2=CC=CC=C2 (assay: log2 fold change, soluble protein after heating vs DMSO (PISA); higher = thermal stabilisation; K562 cells, 10 uM, 30 min; active = over 0.2 and 3.5 SD of the protein, either way, in both replicates (recomputed)).
Summary of the method: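 K562 cells at 2×10^6 cells/mL were treated with 10 μM compound for 30 min. Aliquots were heated for 3 min across 48°C-58°C, pooled, and extracted in PBS with 0.5% NP-40 at 4°C; soluble protein was the supernatant after 21,000xg for 90 min. Soluble protein was quantified by TMTpro 16plex LC-MS/MS with channel sums equalised, and reported as log2 fold change in thermal stability against DMSO controls, with values from duplicates.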

Question: How did the log2 fold change turn out when FGB (UniProt P02675) was run?
Answer: inactive: -0.051

Question: Which log2 fold change does the source give for FKBP4 (UniProt Q02790) here?
Answer: inactive: -0.036

Question: For FBXO42 (UniProt Q6P3S6), which log2 fold change is on record?
Answer: inactive: 0.012

Question: How did the log2 fold change turn out when FASTKD1 (UniProt Q53R41) was run?
Answer: inactive: -0.02

Question: For FLT1 (UniProt P17948), which log2 fold change is on record?
Answer: inactive: 0.081

Question: With FCHO1 (UniProt O14526) as the target, how does the log2 fold change read?
Answer: inactive: 0.046

Question: With FIS1 (UniProt Q9Y3D6) as the target, how does the log2 fold change read?
Answer: inactive: -0.022

Question: Which log2 fold change does the source give for FDFT1 (UniProt P37268) here?
Answer: inactive: -0.028

Question: With FBXO38 (UniProt Q6PIJ6) as the target, how does the log2 fold change read?
Answer: inactive: -0.042

Question: For FECH isoform 2 (UniProt P22830), which log2 fold change is on record?
Answer: inactive: -0.116

Question: Which log2 fold change does the source give for FAM53B (UniProt Q14153) here?
Answer: inactive: 0.125

Question: How did the log2 fold change turn out when FANCD2 isoform 1 (UniProt Q9BXW9) was run?
Answer: inactive: -0.029

Question: Which log2 fold change does the source give for FAM3A (UniProt P98173) here?
Answer: inactive: -0.041

Question: With FER (UniProt P16591) as the target, how does the log2 fold change read?
Answer: inactive: 0.064

Question: Which log2 fold change does the source give for FIZ1 (UniProt Q96SL8) here?
Answer: inactive: 0.108

Question: Which log2 fold change does the source give for FIBP (UniProt O43427) here?
Answer: inactive: 0.004

Question: How did the log2 fold change turn out when FCF1 (UniProt Q9Y324) was run?
Answer: inactive: -0.044

Question: For FBXO9 (UniProt Q9UK97), which log2 fold change is on record?
Answer: inactive: -0.037

Question: How did the log2 fold change turn out when FMC1 (UniProt Q96HJ9) was run?
Answer: inactive: 0.051

Question: FAM241A (UniProt Q8N8J7) was tested. Which log2 fold change did it give?
Answer: inactive: 0.03

Question: With FHOD1 (UniProt Q9Y613) as the target, how does the log2 fold change read?
Answer: inactive: 0.049

Question: With FNTA (UniProt P49354) as the target, how does the log2 fold change read?
Answer: active: 0.561

Question: For FAM76A isoform 3 (UniProt Q8TAV0), which log2 fold change is on record?
Answer: inactive: -0.093

Question: FDPS (UniProt P14324) was tested. Which log2 fold change did it give?
Answer: inactive: -0.118

Question: How did the log2 fold change turn out when FBXO6 (UniProt Q9NRD1) was run?
Answer: inactive: -0.099

Question: For FAT2 (UniProt Q9NYQ8), which log2 fold change is on record?
Answer: inactive: 0.001

Question: FANCI (UniProt Q9NVI1) was tested. Which log2 fold change did it give?
Answer: inactive: -0.02

Question: For FEN1 (UniProt P39748), which log2 fold change is on record?
Answer: inactive: -0.087

Question: For FAM210B (UniProt Q96KR6), which log2 fold change is on record?
Answer: inactive: -0.027

Question: FAT4 (UniProt Q6V0I7) was tested. Which log2 fold change did it give?
Answer: inactive: 0.123
